Results taken from US20150111231A1.
These are yes or no findings as the source states them, for the method shown. Some binding calls cover weakened binding; strength is not graded here. Each block holds one binder with its values, some of them ahead of it.

Experiments:
[1] = biological target: anti-internal structure antibody 5H10; test: competitive ELISA of 5H10, unlabelled peptide varied against the biotinylated internal structural peptide
[2] = biological target: T1, Fragment4 (SEQ ID No.: 11); test: competitive ELISA with fragment peptides 1-4 (FIG. 5)
T1 sequence (peptide): TTRPGSGLTN

binding [1]: binds
Binder: TTRPGSGLTN [Fragment4 (SEQ ID No.: 11)]

binding [2]: binds
B1: anti-internal structure antibody 5H10 (antibody, IgG1, V domains shown)
VH: QVQLQQSGTELAKPGASVKMSCKASGYTFIDYWMHWIKQSPGQGLEWIGFINPRSGSTTYNQKFRDKATLTVDTSSSTAYMQLTSLTSEDSAVYYCTRPDFDYFDYWGQGTTLTVSS
VL: DVLMTQTPLSLPVSLGDHASISCRSSQSIVQSNGNTYLEWYLQKPGQSPKLLIYKVSNRFSGVPDRFSGSGSGTDFTLKISSVEAEDLGIYYCFQASHVPLTFGAGTKLELKR
